{
  "source": "paper PMC12024912",
  "about": "“Druggability Studies of Benzene Sulfonamide Substituted Diarylamide (E3) as a Novel Diuretic” (Biomedicines, 2025)",
  "system": "SD rats",
  "assay": "Long-term (7 d) diuretic activity in rats",
  "assay_type": "in vivo, rat",
  "settings": "Western blot",
  "procedure": "In a single-dose administration experiment, male wild-type (WT) mice, UT-B^−/− mice, UT-A1^−/− mice, or SD rats were adapted in metabolic cages for 3 d. Food and water were provided ad libitum throughout the experiment. Prior to administration, the bladder of each animal was emptied through gentle abdominal massage, and urine was collected from the metabolic cages every 2 h. Compound E3, suspended in 0.5% CMC-Na at an appropriate concentration, was administered intragastric gavage to the mice or rats (0.16, 0.8, 4, or 20 mg/kg). Vehicle control comprised 0.5% (w/v) CMC-Na. Urinary parameters were determined through the following: volume: Gravimetric analysis (1 g/mL density assumption); osmolality: freezing-point osmometry (Micro-osmometer, Fisker Associates, Norwood, MA, USA); and urea: diacetyl oxime colorimetry (QuantiChrom® kit, Elabscience, Wuhan, China). […] Body weight was measured daily. […] Inner medulla and outer medulla tissue homogenates were prepared, and the supernatant after centrifugation was analyzed for solute concentration and osmolality. Urinary osmolality and urea concentration were measured as above. Serum Na^+, K^+, and Cl^− were measured in a clinical chemistry laboratory, while serum creatinine, ALT, and AST were measured through specific reagent kits (NJJC Bio, Nanjing, China). […]",
  "data": [
    {"compound": "CC(=O)c1ccc(C(=O)Nc2cccc(NS(=O)(=O)c3ccccc3)c2)o1", "note": "[Compound E3, 5-acetyl-N-(3-(phenylsulfonamido)phenyl)furan-2-carboxamide]", "values": [
      {"measurement": "AQP2 expression in medullary tissue", "setting": "20 mg/kg", "result": "lower than control rats"},
      {"measurement": "expression levels of UT-A1, UT-A2, UT-A3, UT-B and AQP3 in medullary tissue", "setting": "4 and 20 mg/kg", "result": "did not significantly alter"}
    ]}
  ]
}
